Results published in US20240150396A1 (The Texas A&M University System, priority 2021, published 2024).

Tests used:
[1] = Thiolation of inhibitors with glutathione, LCMS; type: physicochemical; conditions: for Keq of glutathione adduct formation: 1 mM glutathione, Tris pH 8.0; for fraction of glutathione adduct: at equilibrium, of the inputted reactants
Protocol: Samples were analyzed by HPLC-MS (as described above) by injecting 0.01 mL aliquots onto a Luna […] C18(2) 100 Å, 4.6 mm, 50 mm column (Phenomenex) using the HPLC method described in the chemistry section at 0-6 h time points. […] Integration of the chromatographic peaks of the inhibitors and their GSH adducts at each time point was used to determine the rate of GSH adduct formation.

[2] = system: T. cruzi epimastigotes (strain Y); experiment: Growth of axenic cultures of T. cruzi epimastigotes; conditions: more active than K11777

## C[n+]1ccccc1/C=C/[C@H](CCc1ccccc1)NC(=O)[C@H](Cc1ccccc1)NC(=O)OCc1ccccc1 [Compound 15, 2-((S,E)-3-((S)-2-(((Benzyloxy)carbonyl)amino)-3-phenylpropanamido)-5-phenylpent-1-en-1-yl)-1-methylpyridin-1-ium]
[1]
  Keq of glutathione adduct formation: 2400 M⁻¹
[2]
  activity relative to K11777: ≥ 10 fold

## C[C@@H](/C=C/c1ncccn1)NC(=O)[C@H](Cc1ccccc1)NC(=O)OCc1ccccc1 [Compound 10, Benzyl ((S)-1-Oxo-3-phenyl-1-(((S,E)-4-(pyrimidin-2-yl)but-3-en-2-yl)amino)propan-2-yl)carbamate]
[2]
  activity relative to K11777: ≥ 10 fold

## C[n+]1ccccc1/C=C/[C@H](Cc1ccccc1)NC(=O)[C@H](Cc1ccccc1)NC(=O)OCc1ccccc1.[I-] [Compound 12, 2-((S,E)-3-((S)-2-(((Benzyloxy)carbonyl)amino)-3-phenylpropanamido)-4-phenylbut-1-en-1-yl)-1-methylpyridin-1-ium Iodide]
[1]
  fraction of glutathione adduct: 62%
[2]
  activity relative to K11777: ≥ 10 fold

## C[n+]1ccsc1/C=C/[C@H](Cc1ccccc1)NC(=O)[C@H](Cc1ccccc1)NC(=O)OCc1ccccc1.[I-] [Compound 26, 2-((S,E)-3-((S)-2-(((Benzyloxy)carbonyl)amino)-3-phenylpropanamido)-4-phenylbut-1-en-1-yl)-3-methylthiazol-3-ium Iodide]
[1]
  Keq of glutathione adduct formation: 930 M⁻¹

## CN1CCN(C(=O)N[C@@H](Cc2ccccc2)C(=O)N[C@H](/C=C/S(=O)(=O)c2ccccc2)CCc2ccccc2)CC1 [Compound K11777, reference compound]
[1]
  Keq of glutathione adduct formation: 160 M⁻¹
  fraction of glutathione adduct: 17%
